Results are given in words; binding and its absence hold for the method and conditions named. Binding seen in cells or lysates may run through a third protein. Some entries that bind do so weakly or less than the wild type.
Biological target: Th (endogenous, mouse brain) (mouse (endogenous in brain tissue)) (UniProt P24529)
Experiment: co-IP

Chains of the proteins cited; added tags and fusions are not shown.
UniProt P24529: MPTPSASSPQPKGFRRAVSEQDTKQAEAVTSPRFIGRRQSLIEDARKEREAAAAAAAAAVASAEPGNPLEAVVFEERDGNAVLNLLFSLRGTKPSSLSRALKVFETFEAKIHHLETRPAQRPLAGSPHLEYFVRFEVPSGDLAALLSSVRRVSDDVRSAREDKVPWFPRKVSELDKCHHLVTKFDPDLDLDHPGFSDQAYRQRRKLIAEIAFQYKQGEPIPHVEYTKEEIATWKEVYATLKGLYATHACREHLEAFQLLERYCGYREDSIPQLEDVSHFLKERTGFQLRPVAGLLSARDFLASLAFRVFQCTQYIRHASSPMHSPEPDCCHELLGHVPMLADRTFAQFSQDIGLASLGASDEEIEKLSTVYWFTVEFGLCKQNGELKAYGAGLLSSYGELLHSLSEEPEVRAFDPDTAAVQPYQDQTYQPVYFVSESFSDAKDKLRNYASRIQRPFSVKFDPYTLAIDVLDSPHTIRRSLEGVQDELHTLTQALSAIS

binding: binds
B1: Dnajc12 (endogenous, mouse brain) (protein, UniProt Q9R022 1-198)
chain: MDAILNYRPEGSEDYYALLGCDELSSVEQILAEFKIRALECHPDKHPENSKAVETFQKLQKAKEILCNAESRARYDHWRRSQMSMPFEQWEALADSVKTSMHWAVRSKKDLMLEGSGQTFTSSVPNKERSEQRETKKGDPDSNPEKMKQKEPKFPEEGISPQNPDSPGLSDLNCGHLRFRWSGDAPSELLRKFRNYEI
